The target of assay [1] is full-length recombinant KRT14 protein (UniProt P02533). The assay is described as follows: western blot of 1 µg recombinant KRT14; mAb at 1:1000, 1:5000 and 1:10,000. In general terms: Immunoblotting shows a protein as a band on a membrane.
The target is the same in assay [2]. The assay is described as follows: western blot.

Chains of the proteins cited; added tags and fusions are not shown.
UniProt P02533: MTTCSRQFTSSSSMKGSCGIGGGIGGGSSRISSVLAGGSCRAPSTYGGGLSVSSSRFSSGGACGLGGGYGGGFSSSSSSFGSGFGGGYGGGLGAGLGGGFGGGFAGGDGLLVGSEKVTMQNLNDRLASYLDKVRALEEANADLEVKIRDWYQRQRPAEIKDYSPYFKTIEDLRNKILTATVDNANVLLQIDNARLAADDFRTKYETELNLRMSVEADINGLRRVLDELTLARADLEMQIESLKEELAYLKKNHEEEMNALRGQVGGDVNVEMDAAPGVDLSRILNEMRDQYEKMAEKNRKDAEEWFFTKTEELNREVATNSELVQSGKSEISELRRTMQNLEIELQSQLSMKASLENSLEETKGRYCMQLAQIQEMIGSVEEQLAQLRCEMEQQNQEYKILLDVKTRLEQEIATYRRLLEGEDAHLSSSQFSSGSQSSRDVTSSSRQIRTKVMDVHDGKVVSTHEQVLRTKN

Results are given in words; binding and its absence hold for the method and conditions named. Some binding calls cover weakened binding; strength is not graded here.

Among the data in patent US20220127341A1 (HUDSON INSTITUTE OF MEDICAL RESEARCH, published 2022) are binding values, retold here.

B1: monoclonal anti-KRT14 antibody AN-17 (antibody, V domains shown)
VH: QVQLKESGPGLVAPSQSLSITCTVSGFSLSRYSVHWVRQPPGKGLEWLGMIWGGGSTDYNSALKSRLSISKDNSKSQVFLKMNSLQTDDTAMYYCARKDYGYSYFDYWGQGTTLTVSS
VL: DVLMTQTPLSLPVSLGDQASISCRSSQSIVHSNGNTYLEWYLQKPGQSPKLLIYKVSNRFSGVPDRFSGSGSGTDFTLKISRVEAEDLGVYYCFQGSHVPFTFGSGTKLEIKR
notes: the isotype-matched control used is mouse IgG1 kappa; Some assays used it conjugated to Alexa Fluor 488 or Alexa-647; also called mAb AN-17; mAb AN17
For B1, the binding result in assay [1] and in assay [2] was “binds” throughout.
